Values from PubChem BioAssay AID1159584 (Peter MacCallum Cancer Centre, 2016).
Assay: 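Knock-downs that harm CDH1-null cells more than parental MCF10A cells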 (primary screen). Cell system: human MCF10A breast epithelial cells, parental and CDH1-null. Reagents: siRNA against human genes. Detection: 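ATP luminescence (CellTiter-Glo) viability per line relative to mean mock wells over all plates, and the ratio of CDH1-null to parental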. Scale: CDH1-null / parental viability ratio: higher = CDH1-null cells survive relatively better than parental; CDH1-null viability vs mock: higher = more viable CDH1-null cells; parental viability vs mock: higher = more viable parental cells.
Here is a random part of about 18,000 reagents. The numbers tell different reagents against one gene apart. Not stated in the record: the amount of reagent, the time to read-out.

gene knocked down,siRNA no.,CDH1-null / parental viability ratio,CDH1-null viability vs mock (fraction of mock),parental viability vs mock (fraction of mock)
NFKB2 (nuclear factor kappa B subunit 2),1,0.83,0.78,0.94
LCNL1 (lipocalin like 1),1,1.56,0.86,0.55
SYCN (syncollin),1,1.34,1.21,0.9
LAP3 (leucine aminopeptidase 3),1,1.18,0.85,0.72
WDTC1 (WD and tetratricopeptide repeats 1),1,1.3,0.7,0.54
RAD23A (RAD23 nucleotide excision repair protein A),1,0.8,0.77,0.96
WTAP (WT1 associated protein),1,0.71,0.54,0.76
COA5 (cytochrome c oxidase assembly factor 5),1,0.73,0.66,0.9
CHCHD1 (coiled-coil-helix-coiled-coil-helix domain containing 1),1,1.2,0.71,0.59
TFAP2E (transcription factor AP-2 epsilon),1,1.06,0.94,0.89
ZBED2 (zinc finger BED-type containing 2),1,1.26,0.72,0.57
GFOD1 (Gfo/Idh/MocA-like oxidoreductase domain containing 1),1,1.16,0.92,0.79
GFOD1 (Gfo/Idh/MocA-like oxidoreductase domain containing 1),2,1.09,0.87,0.8
LINC02872 (long independently transcribed non-coding RNA 2872),1,1.05,0.78,0.74
HHIPL1 (HHIP like 1),1,0.9,0.81,0.9
STX10 (syntaxin 10),1,0.96,0.52,0.54
AANAT (aralkylamine N-acetyltransferase),1,1.19,0.5,0.42
SH2D1A (SH2 domain containing 1A),1,0.95,0.78,0.82
RPL18A (ribosomal protein L18a),1,1.27,0.38,0.3
HDAC10 (histone deacetylase 10),1,1.4,0.73,0.52
NDE1 (nudE neurodevelopment protein 1),1,1.42,0.17,0.12
SLC47A2,1,1.21,0.64,0.53
HECW2,1,1.19,0.62,0.52
CYP51A1 (cytochrome P450 family 51 subfamily A member 1),1,0.93,0.56,0.6
FBXW10 (F-box and WD repeat domain containing 10),1,1.07,0.88,0.82
CFAP57 (cilia and flagella associated protein 57),1,0.89,0.74,0.83
E2F2 (E2F transcription factor 2),1,0.95,0.92,0.97
UBTD1 (ubiquitin domain containing 1),1,1.12,0.9,0.8

The list goes on, starting with the last 5 of the part before.
gene knocked down,siRNA no.,CDH1-null / parental viability ratio,CDH1-null viability vs mock (fraction of mock),parental viability vs mock (fraction of mock)
CYP51A1 (cytochrome P450 family 51 subfamily A member 1),1,0.93,0.56,0.6
FBXW10 (F-box and WD repeat domain containing 10),1,1.07,0.88,0.82
CFAP57 (cilia and flagella associated protein 57),1,0.89,0.74,0.83
E2F2 (E2F transcription factor 2),1,0.95,0.92,0.97
UBTD1 (ubiquitin domain containing 1),1,1.12,0.9,0.8
RABAC1 (Rab acceptor 1),1,0.91,0.4,0.44
FPR3 (formyl peptide receptor 3),1,0.61,0.56,0.92
SLC10A1,1,0.97,0.76,0.78
OASL (2'-5'-oligoadenylate synthetase like),1,0.89,0.66,0.74
MRGPRD (MAS related GPR family member D),1,1.37,1.03,0.75
PIF1 (PIF1 5'-to-3' DNA helicase),1,1.13,0.6,0.53
DEFB136 (defensin beta 136),1,1.1,1.17,1.06
CFAP65 (cilia and flagella associated protein 65),1,0.98,0.79,0.81
SPON2 (spondin 2),1,0.75,0.4,0.53
LONRF1 (LON peptidase N-terminal domain and ring finger 1),1,1.01,0.97,0.96
CCDC88C (coiled-coil and HOOK domain protein 88C),1,1.22,0.9,0.74
ZFYVE19 (zinc finger FYVE-type containing 19),1,1.21,0.58,0.48
TMEM40 (transmembrane protein 40),1,0.87,0.8,0.92
C4orf50 (chromosome 4 open reading frame 50),1,0.9,0.36,0.4
COA7 (cytochrome c oxidase assembly factor 7),1,0.79,0.75,0.95
PJA2 (praja ring finger ubiquitin ligase 2),1,0.98,0.86,0.88
NLE1 (notchless homolog 1),1,1.05,0.84,0.8
OVCH1 (ovochymase 1),1,1.4,0.84,0.6
FBXO47 (F-box protein 47),1,1.11,0.91,0.82
PRTN3 (proteinase 3),1,0.9,0.45,0.5
GTF3C3 (general transcription factor IIIC subunit 3),1,0.98,0.88,0.9
OR2B2 (olfactory receptor family 2 subfamily B member 2),1,0.97,1.16,1.19
CCDC42 (coiled-coil domain containing 42),1,1.22,0.61,0.5
CENPO (centromere protein O),1,0.8,0.74,0.92
SLIRP-OT1 (SLIRP overlapping transcript 1),1,0.85,0.73,0.86
FNBP4 (formin binding protein 4),1,0.94,0.73,0.78
KANSL3 (KAT8 regulatory NSL complex subunit 3),1,1.17,0.97,0.83
TNFSF11 (TNF superfamily member 11),1,1.12,0.86,0.77
ADGRL3 (adhesion G protein-coupled receptor L3),1,0.79,0.86,1.09
RAD54L (RAD54 like),1,0.99,0.85,0.86
HACE1,1,1.31,0.98,0.75
OR6K6 (olfactory receptor family 6 subfamily K member 6),1,0.84,0.64,0.76
EML1 (EMAP like 1),1,1.07,0.96,0.9
SCNM1 (sodium channel modifier 1),1,0.72,0.52,0.72
CEP290 (centrosomal protein 290),1,0.91,0.88,0.97
FRMD6 (FERM domain containing 6),1,0.78,0.42,0.54
DCP1B (decapping mRNA 1B),1,1.23,0.92,0.75
NTSR1 (neurotensin receptor 1),1,1.54,0.8,0.52
PDCL2 (phosducin like 2),1,1.04,1,0.96
DERA (deoxyribose-phosphate aldolase),1,0.82,0.75,0.92
